From paper PMC11441684, “A suboptimal OCT4-SOX2 binding site facilitates the naïve-state specific function of a Klf4 enhancer”

Tested on: OCT4 + SOX2
Assay: EMSA
Settings: 12.5 mM K-Hepes pH 7.6, 50 mM NaCl, 1 mM MgCl2, 10% glycerol, 0.1% NP-40, 0.1 mg/mL BSA, 1 mM DTT, 1 ug/uL poly dG:dC, 2 nM probe, 30 C 15 min, 4% acrylamide gel, recombinant protein, protein details: 6xHis (pSKB3-6H-TEV),6xHis (pSKB3-6H-TEV), label: Cy5 on strand 2 (extended primer S1)

Row | Sequence | binding result (19 nM OCT4, 16 nM SOX2, most shifted DNA bound only by OCT4) | binding result (19 nM OCT4, 16 nM SOX2)
1 | GTTACTCTGCAGCTACCTTTGCATATCAAATGCCTTGGTGAGACTGG (double strand) [Klf4-E1 OS site probe] | binds more weakly | –
2 | GTTACTCTGCAGCTACATCTTCATATAAATGGCCTTGGTGAGACTGG (double strand) [Klf4-E2 OS site probe] | – | binds more weakly

A weaker result is weaker than the reference pair of the same experiment.
